PubChem BioAssay AID686937, Drosophila RNAi Screening Center – 2013
The deposit covers about 23,000 reagents; this is a random part of those with a known target gene and a result. 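Reduced-secretion tags in replicate 1 do not always agree with the z-scores; no criterion for assigning the tags was given.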 The numbers tell different reagents against one gene apart. A plus sign joins genes that one reagent is predicted to hit. The record does not give: the amount of reagent.

Purpose: 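Genes in the fly needed for secretion of protein constitutively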 (primary screen)
Cells: Drosophila S2 cells expressing secreted horseradish peroxidase
Reagent: long dsRNA against Drosophila genes
Time to read-out: about 5.5 days (5 days dsRNA, then 12 h reporter induction)
Challenge: reporter expression induced after 5 days of dsRNA, read 12 h later; inducer not stated
Measured: 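Chemiluminescent measurement of peroxidase in the medium 12 h after reporter induction, following 5 days of dsRNA, given as a z-score per plate; higher means more secretion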
Reading the numbers: z-score: higher = more reporter secreted into medium

| Gene | reagent | z-score, replicate 1 | z-score, replicate 2 | z-score, replicate 3 | z-score, replicate 4 | phenotype, replicate 1 |
| --- | --- | --- | --- | --- | --- | --- |
| Nmdar1 (GeneID 40665) | 1 | 0.55 | 0.15 | – | – | – |
| Nmdar1 (GeneID 40665) | 2 | 0.34 | 0.74 | – | – | – |
| brv3 (GeneID 31246) | 1 | 0.13 | 0.29 | – | – | – |
| Shark (GeneID 44353) | 1 | 0.24 | 0.45 | – | – | – |
| CG4822 (GeneID 33170) | 1 | 0.27 | 0.31 | – | – | – |
| CG42304 + Snup | 1 | 0.16 | 0.45 | – | – | – |
| CG42304 + Snup | 2 | -0.21 | 0.05 | – | – | – |
| CG42304 + Snup | 3 | 2.97 | 1.07 | – | – | – |
| CG42306 + Gint3 | 1 | 0.21 | 0.15 | – | – | – |
| CG33557 (GeneID 3346145) | 1 | 0.21 | 0.24 | – | – | – |
| CG14572 (GeneID 40422) | 1 | 0.36 | 0.11 | – | – | – |
| pad (GeneID 41981) | 1 | -0.42 | -0.01 | – | – | – |
| UQCR-6.4 (GeneID 36991) | 1 | 0.36 | 0.19 | – | – | – |
| CG13775 (GeneID 33975) | 1 | 0.68 | 0.44 | – | – | – |
| CG17734 (GeneID 41359) | 1 | 0.44 | 0.25 | 0.41 | 0.45 | – |
| Argl + CG9515 | 1 | 0.27 | 0.36 | – | – | – |
| Argl + CG9515 | 2 | 0.5 | 0.39 | – | – | – |
| CG34167 (GeneID 5740831) | 1 | 0.1 | 0.21 | – | – | – |
| His4r (GeneID 41773) | 1 | -2.94 | -3.42 | – | – | reduced secretion |
| obe (GeneID 41891) | 1 | 0.35 | 0.35 | – | – | – |
| CG4461 (GeneID 39074) | 1 | 0.25 | 0.44 | – | – | – |
| CG17636 (GeneID 5740847) | 1 | 0.42 | 0.22 | – | – | – |
| Oga (GeneID 42518) | 1 | 0.36 | 0.33 | – | – | – |
| Ca-beta (GeneID 34557) | 1 | 0.03 | 0.12 | – | – | – |
| Ca-beta (GeneID 34557) | 2 | -0.08 | 0.11 | – | – | – |
| Ca-beta (GeneID 34557) | 3 | 0.49 | 0.06 | 0.14 | 0.08 | – |
| Ca-beta (GeneID 34557) | 4 | 0.5 | -0.14 | – | – | – |
| CG31482 (GeneID 40806) | 1 | 0.19 | 0.03 | – | – | – |
| CG5466 (GeneID 42444) | 1 | -4.04 | -3.35 | – | – | reduced secretion |
| Kaz (GeneID 326135) | 1 | 0.46 | 0.47 | – | – | – |
| lilli (GeneID 33496) | 1 | -4.15 | 0.46 | 0.25 | -3.99 | reduced secretion |
| CG5687 (GeneID 38255) | 1 | -3.38 | -3.12 | – | – | reduced secretion |

An excerpt from above, showing only “z-score, replicate 2”.
CG14572 (GeneID 40422) = 0.11
pad (GeneID 41981) = -0.01
UQCR-6.4 (GeneID 36991) = 0.19
CG13775 (GeneID 33975) = 0.44
CG17734 (GeneID 41359) = 0.25
Argl + CG9515 #1 = 0.36
Argl + CG9515 #2 = 0.39
CG34167 (GeneID 5740831) = 0.21
His4r (GeneID 41773) = -3.42
obe (GeneID 41891) = 0.35
CG4461 (GeneID 39074) = 0.44
CG17636 (GeneID 5740847) = 0.22

The listing continues.
| Gene | reagent | z-score, replicate 1 | z-score, replicate 2 | z-score, replicate 3 | z-score, replicate 4 | phenotype, replicate 1 |
| --- | --- | --- | --- | --- | --- | --- |
| hpRNA:CR32207 (GeneID 10178801) | 1 | 0.9 | 0.46 | – | – | – |
| CG11837 (GeneID 43429) | 1 | 0.14 | 0.1 | – | – | – |
| sano (GeneID 37185) | 1 | 0.29 | 0.19 | – | – | – |
| CG31910 + snoRNA:Me28S-G2743 (retired record) | 1 | -0.26 | 0.28 | – | – | – |
| Tbh (GeneID 31718) | 1 | 0.35 | 0.63 | – | – | – |
| BCL7-like (GeneID 31890) | 1 | 0.27 | 0.26 | – | – | – |
| CCT3 (GeneID 42029) | 1 | -0.05 | -0.04 | – | – | – |
| mus101 (GeneID 48309) | 1 | 0.21 | 0.37 | – | – | – |
| CG12877 (GeneID 43333) | 1 | 0.23 | 0.41 | – | – | – |
| E(bx) (GeneID 44811) | 1 | 0.22 | 0.39 | – | – | – |
| E(bx) (GeneID 44811) | 2 | -3.62 | -3.96 | – | – | reduced secretion |
| E(bx) (GeneID 44811) | 3 | -0.14 | 0.08 | – | – | – |
| pdm3 (GeneID 35813) | 1 | 0.43 | 0.38 | – | – | – |
| pdm3 (GeneID 35813) | 2 | 0.42 | 0.33 | – | – | – |
| pdm3 (GeneID 35813) | 3 | 0.45 | -0.03 | – | – | – |
| Or22a (GeneID 33335) | 1 | -0.13 | -0.75 | – | – | – |
| Cpr67B (GeneID 39081) | 1 | 0.62 | 0.43 | – | – | – |
| CG11052 (GeneID 49997) | 1 | 0.2 | 0.19 | – | – | – |
| Tsp42Ed (GeneID 35613) | 1 | 0.79 | 0.51 | – | – | – |
| CG42597 (GeneID 8674090) | 1 | -0.05 | 0.33 | – | – | – |
| betaTub60D (GeneID 37888) | 1 | 0.07 | 0.07 | – | – | – |
| betaTub60D (GeneID 37888) | 2 | -0.91 | 0.02 | – | – | – |
| Osi3 (GeneID 40757) | 1 | 0.15 | 0.44 | – | – | – |
| siz (GeneID 40327) | 1 | 0.23 | 0.33 | – | – | – |
| siz (GeneID 40327) | 2 | 0.33 | 0.39 | – | – | – |
| siz (GeneID 40327) | 3 | 0.41 | 0.75 | – | – | – |
| r-l (GeneID 42493) | 1 | 0.14 | 0.38 | 0.27 | -0.67 | – |
| r-l (GeneID 42493) | 2 | 0.87 | 2.35 | – | – | – |
| CG11699 (GeneID 32101) | 1 | 0.05 | 0.07 | – | – | – |
| prom (GeneID 246493) | 1 | -0.1 | -0.3 | – | – | – |
| prom (GeneID 246493) | 2 | 1.2 | 1.04 | – | – | – |
| prom (GeneID 246493) | 3 | 0.45 | -0.02 | – | – | – |
| Uck (GeneID 42894) | 1 | 0.28 | 0.2 | – | – | – |
| Uck (GeneID 42894) | 2 | -0.57 | -0.73 | – | – | – |
| CG13110 (GeneID 34253) | 1 | 0.27 | 0.4 | 0.37 | 0.23 | – |
| Orp8 (GeneID 42412) | 1 | 0.4 | 0.42 | 0.37 | 0.34 | – |
| Orp8 (GeneID 42412) | 2 | 0.4 | 0.4 | – | – | – |
| CG31140 (GeneID 42836) | 1 | 0.64 | -0.39 | – | – | – |
| CG31140 (GeneID 42836) | 2 | 0.3 | 0.13 | – | – | – |
| CG31140 (GeneID 42836) | 3 | 0.28 | 0.31 | – | – | – |
| Gal (GeneID 33839) | 1 | 0.2 | 0.15 | – | – | – |
| CG42713 (GeneID 10178890) | 1 | -0.08 | -0.32 | – | – | – |
| Gycalpha99B (GeneID 43493) | 1 | 0.25 | 0.05 | – | – | – |
| CG3548 (GeneID 37932) | 1 | 0.07 | 0.18 | – | – | – |
| nonA-l (GeneID 42026) | 1 | 0.01 | 0.19 | – | – | – |
| CG42568 + DnaJ-60 | 1 | 0.15 | 0.08 | – | – | – |
| CG42568 + DnaJ-60 | 2 | 0.3 | 0.3 | – | – | – |
| CG34404 (GeneID 41873) | 1 | 0.23 | 0.49 | – | – | – |
| CG34404 (GeneID 41873) | 2 | 0.32 | 0.19 | – | – | – |
| grim (GeneID 40014) | 1 | -2.35 | -0.95 | – | – | reduced secretion |
